This test has as its target human CEACAM1-4L on stably transfected A549 cells (human) (UniProt P13688). The test can be described thus: ELISA; cell-based ELISA: sparse monolayers of A549-CEACAM1-4L cells in 96-well plates; Fc protein in cell culture medium added for 2 h on ice; detected with HRP-coupled goat anti human-Fc pAb; absorbance at 450 nm; triplicates; only the binder purified. On the technique in general: In an ELISA, binding on a coated surface is turned into a signal by an enzyme label.

Chains of the proteins cited; added tags and fusions are not shown. Residues count along the entry.
UniProt P13688, residues 35-526: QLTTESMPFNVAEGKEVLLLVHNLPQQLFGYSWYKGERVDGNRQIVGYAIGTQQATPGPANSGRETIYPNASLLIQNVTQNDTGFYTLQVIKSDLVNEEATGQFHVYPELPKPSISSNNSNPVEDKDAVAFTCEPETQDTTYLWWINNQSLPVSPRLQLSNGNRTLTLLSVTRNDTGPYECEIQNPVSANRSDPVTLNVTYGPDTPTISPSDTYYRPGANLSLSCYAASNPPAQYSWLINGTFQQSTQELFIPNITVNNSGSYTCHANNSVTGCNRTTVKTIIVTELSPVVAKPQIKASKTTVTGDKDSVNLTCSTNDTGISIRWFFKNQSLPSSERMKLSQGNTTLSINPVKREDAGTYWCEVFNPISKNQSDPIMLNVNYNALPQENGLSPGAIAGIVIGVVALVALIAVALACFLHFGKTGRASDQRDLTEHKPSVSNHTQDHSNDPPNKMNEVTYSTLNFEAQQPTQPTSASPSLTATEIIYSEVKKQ
UniProt P16573, residues 35-425: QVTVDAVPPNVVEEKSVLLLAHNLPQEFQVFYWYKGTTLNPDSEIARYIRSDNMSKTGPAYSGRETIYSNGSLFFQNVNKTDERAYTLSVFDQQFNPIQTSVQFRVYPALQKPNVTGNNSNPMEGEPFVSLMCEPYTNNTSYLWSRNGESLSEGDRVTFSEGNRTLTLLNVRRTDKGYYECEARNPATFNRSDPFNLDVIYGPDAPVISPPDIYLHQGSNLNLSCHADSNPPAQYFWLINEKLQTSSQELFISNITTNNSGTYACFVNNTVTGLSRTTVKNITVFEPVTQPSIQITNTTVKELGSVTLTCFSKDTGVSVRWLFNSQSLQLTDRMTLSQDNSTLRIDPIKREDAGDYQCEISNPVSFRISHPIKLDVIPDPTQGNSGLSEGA

Results are given in words; binding and its absence hold for the method and conditions named.

For the substance “rat CEACAM1-Fc (from UniProt P16573 35-425) (Fc fusion)”, the binding entry is reported as “no binding (tested: 10 µg/ml)”.
